Source: PubChem BioAssay AID1671190 (National Center for Advancing Translational Sciences (NCATS), 2021)
About 6,100 (1.1%) of roughly 580,000 compounds were called active. This list was built around the results that the source calls inconclusive (neither active nor inactive); the mix of calls is not that of the screen. Calls follow the shape of the dose curve; as a rule, active = well fitted inhibition curve with a large enough effect; inconclusive = small, poorly fitted or top-dose-only effect, or another doubt; inactive = no such curve, though single readings can be large or run the other way. A potency beside an inconclusive call is a rough fit, not a confirmed value.

By UniProt entry, the sequences of proteins in these tests, tags left out. Where a name states a change or a piece, a line headed by the entry shows the natural chain unless it says otherwise.
UniProt P18054: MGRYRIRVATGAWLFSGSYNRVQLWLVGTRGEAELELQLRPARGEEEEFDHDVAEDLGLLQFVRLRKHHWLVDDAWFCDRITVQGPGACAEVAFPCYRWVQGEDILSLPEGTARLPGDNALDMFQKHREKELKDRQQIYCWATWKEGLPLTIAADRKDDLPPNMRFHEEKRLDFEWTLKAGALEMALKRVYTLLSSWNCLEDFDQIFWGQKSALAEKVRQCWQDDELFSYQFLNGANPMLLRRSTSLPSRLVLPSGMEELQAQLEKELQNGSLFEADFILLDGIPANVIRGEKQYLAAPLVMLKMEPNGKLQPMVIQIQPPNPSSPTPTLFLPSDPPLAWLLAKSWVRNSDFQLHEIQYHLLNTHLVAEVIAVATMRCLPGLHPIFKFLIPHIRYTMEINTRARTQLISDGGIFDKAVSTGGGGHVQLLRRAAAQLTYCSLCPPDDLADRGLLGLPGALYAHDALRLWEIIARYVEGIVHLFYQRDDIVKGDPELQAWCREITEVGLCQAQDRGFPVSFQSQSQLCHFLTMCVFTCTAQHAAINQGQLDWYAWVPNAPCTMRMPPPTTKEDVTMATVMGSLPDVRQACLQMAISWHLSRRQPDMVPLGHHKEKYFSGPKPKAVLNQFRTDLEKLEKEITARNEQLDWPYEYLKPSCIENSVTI

The compounds below were run against Polyunsaturated fatty acid lipoxygenase ALOX12 (Homo sapiens) (UniProt P18054) (assay: Primary qHTS assay for inhibitors of human arachidonate 12S-lipoxygenase (ALOX12): Round 2). Settings: purified 12hLO, xylenol orange hydroperoxide absorbance; activity change, negative = inhibition: at 108 µM (top of the series) unless noted.
Summary of the method: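 Purified human 12hLO at 150 nM in 25 mM Hepes, 0.01% Triton X-100, pH 7.0, preincubated 15 min at room temperature with compound. Reaction started with 40 uM arachidonic acid, 30 min at room temperature. Hydroperoxide measured by Fe-xylenol orange, 573/405 nm absorbance ratio.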
% is scaled to controls: 0 for no effect and ±100 for the full control effect; potency is read from the fitted curve at half-maximal effect.

| Structure (SMILES) | Potency | activity change, negative = inhibition |
| --- | --- | --- |
| CCc1ccc(CCC(=O)Nc2sc3c(c2C#N)CCCC3)o1 | inconclusive: 35.5 µM [inhibitor, partial curve] |  |
| N#Cc1nc(N2CCOCC2)nc(N2CCOCC2)n1 | inconclusive: 126 µM [inhibitor, single point] |  |
| COc1ccc(-n2c(CNC(=O)COc3ccc(Cl)cc3)n[nH]c2=S)cc1 | inconclusive: 56.2 µM [inhibitor, partial curve, poor fit] |  |
| Cc1sc(-c2cccc(O)c2)nc1-c1ccccc1 | inconclusive: 39.8 µM [inhibitor, partial curve, poor fit] |  |
| CC(C)c1noc(-c2cn(C3CCN(C(=O)Cc4ccc(Br)cc4)C3)nn2)n1 (stereo not given) | inconclusive: 17.8 µM [inhibitor, full curve] |  |
| C=CCn1c(C)c(/C=C/c2cc[n+](C)cc2)c2ccccc21 |  | inactive: -33.7% |
| O=C1Cc2cc(NS(=O)(=O)c3ccc(Cl)cc3)cc3c2N1CCC3 | inconclusive: 50.1 µM [inhibitor, partial curve, poor fit] |  |
| CC(C)NCCCCOc1cccc(Br)c1 | inconclusive: 0.447 µM [inhibitor, full curve, poor fit] |  |
| Cc1ccc(CN2C(=O)CS(=O)c3ccc(C(=O)NCc4ccccc4)cc32)cc1 (stereo not given) |  | inactive: -15.2% |
| O=S(=O)(NC1CCCC1)c1ccc(S(=O)(=O)N2CCCN(Cc3ccccc3)C2)cc1 | inconclusive: 44.7 µM [inhibitor, partial curve, poor fit] |  |
| Cc1ccc(-c2nc(C(=O)NCCCN(C)C)cc3c2[nH]c2ccccc23)cc1 | inconclusive: 22.4 µM [inhibitor, partial curve, poor fit] |  |
| Cc1cccc(NC(=O)c2cccc(S(=O)(=O)N(C)c3ccccc3)c2)n1 |  | inactive: 294% |
| Cc1oc(-c2ccccc2)nc1CC(=O)Nc1ncccc1O |  | inactive: -6.88% |
| Cc1onc(C(=O)Nc2sc3c(c2C#N)CCCC3)c1[N+](=O)[O-] | inconclusive: 44.7 µM [inhibitor, partial curve, poor fit] |  |
| COc1ccc(OCC(O)CN2CCN(Cc3ccc4c(c3)OCO4)CC2)cc1 (stereo not given) |  | inactive: -8.08% |
| O=C(/C=C/c1ccccc1Cl)c1ccc(O)cc1 | inconclusive: 100 µM [inhibitor, single point] |  |
| O=c1c2nccnc2nc(SCc2cccc(F)c2)n1Cc1ccc2c(c1)OCO2 | inconclusive: 39.8 µM [inhibitor, partial curve, poor fit] |  |
| CCCc1nnc(SCC(=O)Nc2ccc(Cl)cc2Cl)o1 | inconclusive: 5.01 µM [inhibitor, single point] |  |
| CC(OC(=O)c1cc(C2CC2)nn1-c1ccccc1)C(=O)Nc1ccc(C#N)cc1 (stereo not given) | inconclusive: 70.8 µM [inhibitor, partial curve, poor fit] |  |
| c1ccc(C(CNCc2cccnc2)N2CCCC2)cc1 (stereo not given) |  | inactive: 5.86% |
| CC1CCCCN1C(=O)CSc1nc(-c2ccccc2)cn1N (stereo not given) |  | inactive: 44.8% |
| O=C1c2[nH]nc(-c3ccccc3O)c2C(c2ccc(Cl)cc2)N1Cc1ccco1 (stereo not given) | inconclusive: 50.1 µM [inhibitor, partial curve, poor fit] |  |
| CCOC(=O)c1[nH]c2ccc(F)cc2c1NC(=O)CN1CCN(C/C=C/c2ccccc2)CC1 |  | inactive: -1.88% |
| O=C1NCCc2[nH]c(-c3ccncc3)cc21 | inconclusive: 2.43 µM [inhibitor, partial curve, poor fit] |  |

| Structure (SMILES) | Potency | activity change, negative = inhibition |
| --- | --- | --- |
| O=C(CCc1nc2ccccc2s1)NCC(=O)N1CCCCCCNC(=O)CC1c1ccccc1 (stereo not given) |  | inactive: 8.96% |
| O=C(CCc1ccc(F)c(F)c1)N1CC=C(c2c[nH]c3ncccc23)CC1 | inconclusive: 25.1 µM [inhibitor, partial curve, poor fit] |  |
| COc1ccc2c(c1)C(=O)Nc1cc(Cl)ccc1N2 | inconclusive: 28.2 µM [inhibitor, partial curve, poor fit] |  |
| CCC(=O)N1CCN(c2nc3c(s2)CC(C(=O)Nc2ccc(F)cc2)CC3)CC1 (stereo not given) | inconclusive: 44.7 µM [inhibitor, partial curve, poor fit] |  |
| Cc1ccc2nc(N3CCN(Cc4nnnn4Cc4ccccc4)CC3)c(C#N)cc2c1 | inconclusive: 15.8 µM [inhibitor, partial curve, poor fit] |  |
| Cc1cccc(Cn2c(N3CCN(CCO)CC3)nc3c2c(=O)[nH]c(=O)n3C)c1 |  | inactive: 10.1% |
| COc1cccc(CNc2nc3cc(C(C)=C(C)C)sc3c(=O)n2C)c1 | active: 10 µM |  |
| C[C@@H]1CN([C@H](C)CO)C(=O)c2cc(Br)cnc2O[C@H]1CN(C)C | inconclusive: 100 µM [inhibitor, single point] |  |
| CCOC(=O)C1(Cc2ccccc2F)CCCN(C(=O)c2cccc(C(=O)OC)c2)C1 (stereo not given) |  | inactive: 60.1% |
| CC(C)NC(=O)c1nc(-c2cccc3[nH]ccc23)no1 |  | inactive: -11.4% |
| COc1ccc2c(/C=N/Nc3ccc(C(=O)O)cc3)c[nH]c2c1 | inconclusive: 39.8 µM [inhibitor, partial curve] |  |
| COc1ccccc1NC(=O)c1c(Nc2ccccc2F)sc(C(=O)Nc2cccc(Cl)c2)c1N |  | inactive: -0.163% |
| O=C(O)c1cc(F)ccc1-c1ccccc1 |  | inactive: -1% |
| CSc1ccc(S(=O)(=O)NCC(=O)OCC(=O)N(C)CC(=O)Nc2ccc(F)cc2)cc1[N+](=O)[O-] | inconclusive: 141 µM [inhibitor, single point] |  |
| COC(=O)C1=C(O)/C(=C\c2cc(C)n(-c3ccc(F)cc3)c2C)N=C1C | inconclusive: 50.1 µM [inhibitor, partial curve, poor fit] |  |
| CC(=O)N1N=C(c2ccc(C)cc2)CC1c1ccco1 (stereo not given) |  | inactive: -3.61% |
| CCC(=O)N1CCN(c2ccc(NC(=O)c3ccc([N+](=O)[O-])o3)cc2Cl)CC1 | inconclusive: 50.1 µM [inhibitor, partial curve, poor fit] |  |
| CCN(CC)C(=O)CSc1nc2ccc(NC(=O)CSc3nnc(N)s3)cc2s1 |  | inactive: 0% |
| O=C(COC(=O)C12CC3CC(CC(C3)C1)C2)NC12CC3CC(CC(C3)C1)C2 | inconclusive: 28.2 µM [inhibitor, partial curve, poor fit] |  |
| Cc1ccccc1C1C2=C(CC(C)(C)CC2=O)OC2=C1C(=O)CC(C)(C)C2 |  | inactive: -3% |
| COC(=O)CN1C(=O)N/C(=C/c2ccc(OC)cc2)C1=O |  | inactive: -3.39% |
| CS(=O)(=O)NC(=O)c1ccc(F)c(F)c1 | inconclusive: 31.6 µM [inhibitor, partial curve, poor fit] |  |
| COc1cccc(-c2ccc3c(n2)c(=O)ncn3CC2CC2)c1 |  | inactive: 6.05% [at 176 µM] |
| CN(c1ccccc1)P(=O)(N(C)c1ccccc1)N(C)c1ccccc1 |  | inactive: -0.822% |

Molecules above with an NH in an aromatic ring, in the order listed:

| Structure (SMILES) | Potency | activity change, negative = inhibition |
| --- | --- | --- |
| COc1ccc(-n2c(CNC(=O)COc3ccc(Cl)cc3)n[nH]c2=S)cc1 | inconclusive: 56.2 µM [inhibitor, partial curve, poor fit] |  |
| Cc1ccc(-c2nc(C(=O)NCCCN(C)C)cc3c2[nH]c2ccccc23)cc1 | inconclusive: 22.4 µM [inhibitor, partial curve, poor fit] |  |
| O=C1c2[nH]nc(-c3ccccc3O)c2C(c2ccc(Cl)cc2)N1Cc1ccco1 (stereo not given) | inconclusive: 50.1 µM [inhibitor, partial curve, poor fit] |  |
| CCOC(=O)c1[nH]c2ccc(F)cc2c1NC(=O)CN1CCN(C/C=C/c2ccccc2)CC1 |  | inactive: -1.88% |
| O=C1NCCc2[nH]c(-c3ccncc3)cc21 | inconclusive: 2.43 µM [inhibitor, partial curve, poor fit] |  |
| O=C(CCc1ccc(F)c(F)c1)N1CC=C(c2c[nH]c3ncccc23)CC1 | inconclusive: 25.1 µM [inhibitor, partial curve, poor fit] |  |
| Cc1cccc(Cn2c(N3CCN(CCO)CC3)nc3c2c(=O)[nH]c(=O)n3C)c1 |  | inactive: 10.1% |
| CC(C)NC(=O)c1nc(-c2cccc3[nH]ccc23)no1 |  | inactive: -11.4% |
| COc1ccc2c(/C=N/Nc3ccc(C(=O)O)cc3)c[nH]c2c1 | inconclusive: 39.8 µM [inhibitor, partial curve] |  |

Going on with the list.

| Structure (SMILES) | Potency | activity change, negative = inhibition |
| --- | --- | --- |
| COc1ccc2c(C)c(CCC(=O)N3CCCC3)c(=O)oc2c1 |  | inactive: 12.5% |
| C#CC1(O)CCC2C3CCC4=CC(=O)CCC4C3CCC21C (stereo not given) |  | inactive: -2.2% |
| O=C(COC(=O)c1ccc2c(c1)C(=O)N(c1cccc3ncccc13)C2=O)c1ccc(Cl)cc1 |  | inactive: -19.6% |
| COc1ccc(-c2cc(=O)oc(-c3cccc(C)c3)n2)cc1 | inconclusive: 79.4 µM [inhibitor, partial curve, poor fit] |  |
| CC(C)Oc1cccc(C(=O)NC(=S)Nc2cccc(C(F)(F)F)c2)c1 | inconclusive: 31.6 µM [inhibitor, partial curve, poor fit] |  |
| CCc1ccc(CCC(=O)Nc2ccc(Br)cc2)o1 | inconclusive: 126 µM [inhibitor, single point] |  |
| CC1CC(=O)Nc2ccccc2N1C(=O)COc1ccc2cc(Br)ccc2c1 (stereo not given) |  | inconclusive: -45% [inhibitor] |
| COCCNc1nc(-c2cc(F)ccc2C)c2sc(-c3ccccc3)cc2n1 | inconclusive: 39.8 µM [inhibitor, partial curve, poor fit] |  |
| O=[N+]([O-])c1c(-c2ccccc2)[nH]c2ccccc12 | inconclusive: 100 µM [inhibitor, single point] |  |
| Clc1ccc(C(c2ccccc2)N2CCN(c3ccccn3)CC2)cc1 (stereo not given) |  | inactive: -5.98% |
| COc1ccc2[nH]c(C(=O)N3CCC(n4nccc4NC(=O)C4CC4)CC3)c(C)c2c1 |  | inactive: 15.3% |
| CC1(C(=O)NS(=O)(=O)c2ccc(Cl)cc2)CCN1C(=O)Cc1ccsc1 (stereo not given) | inconclusive: 39.8 µM [inhibitor, partial curve, poor fit] |  |
| COc1ccc2c(C)cc(N3CCCCCC3)nc2c1 | inconclusive: 44.7 µM [inhibitor, partial curve, poor fit] |  |
| Cc1ccc(N(CC(O)COCc2ccco2)S(=O)(=O)c2ccc(C)cc2)cc1 (stereo not given) | active: 35.5 µM |  |
| CCCc1ccc(C(=O)/C(C#N)=C\c2cn[nH]c2C(C)(C)C)cc1 |  | inactive: -11.9% |
| O=C(CC1N=C(Cc2ccccc2)NNC1=O)N/N=C/c1ccc([N+](=O)[O-])cc1 (stereo not given) | inconclusive: 89.1 µM [inhibitor, partial curve, poor fit] |  |
| COc1ccc(-c2cn(CCN)c(-c3ccncc3)n2)cc1 | inconclusive: 1.78 µM [inhibitor, full curve, poor fit] |  |
| Cc1ccc(N/N=C2/CCCNC2=O)cc1 | inconclusive: 39.8 µM [inhibitor, partial curve, poor fit] |  |
| COC(=O)C1=C(C)N(CC(C)C)C(=S)NC1c1cccc(F)c1 (stereo not given) | inconclusive: 50.1 µM [inhibitor, partial curve, poor fit] |  |
| COc1ccccc1N1CCN(C(=O)Cn2ncc3c([nH]c4ccccc43)c2=O)CC1 |  | inconclusive: -32.6% [inhibitor] |
| COc1ccc(-c2cc(C(=O)N3CCN(c4ncccn4)CC3)c3ccccc3n2)cc1 |  | inactive: -10% |
| CC1(C)CC(=O)N(c2ccc(C#N)cc2)C(=O)C1 | inconclusive: 1.58 µM [inhibitor, partial curve, poor fit] |  |

Part of the list above, as labelled records:
COc1ccc2c(C)c(CCC(=O)N3CCCC3)c(=O)oc2c1
  activity change, negative = inhibition: inactive: 12.5%
COc1ccc(-c2cc(C(=O)N3CCN(c4ncccn4)CC3)c3ccccc3n2)cc1
  activity change, negative = inhibition: inactive: -10%
